Changes are numbered by the printed parent chain. These are yes or no findings as the source states them, for the method shown. In cells and extracts the contact can be indirect. Some entries that bind do so weakly or less than the wild type. Tags and fused reporters may be left off the sequences shown.

Protein sequences, listed by entry. Tags and fused reporters are not part of them. Residues count along the entry.
UniProt Q07917, residues 363-598: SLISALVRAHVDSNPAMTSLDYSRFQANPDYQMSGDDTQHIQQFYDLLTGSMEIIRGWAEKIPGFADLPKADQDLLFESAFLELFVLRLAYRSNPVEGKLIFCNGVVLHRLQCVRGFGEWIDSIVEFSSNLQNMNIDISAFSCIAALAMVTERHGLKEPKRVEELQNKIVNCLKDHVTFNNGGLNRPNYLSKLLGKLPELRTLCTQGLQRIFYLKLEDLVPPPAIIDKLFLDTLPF

Test in all cases: pull-down; GST-PIASγ fusion proteins or GST alone (1.5 µg) bound to glutathione-agarose, incubated with whole extracts of COS-1 cells transfected with Myc-Nurr1 363-598 for 1 h at 4°C; extensive washing; immunoblot with anti-Myc (9E10); only the target purified
Background: A western blot detects proteins with antibodies after separation by electrophoresis.

Assay [1] addresses T1, GST-PIASγmut2 (human) (UniProt Q8N2W9).
T1 sequence: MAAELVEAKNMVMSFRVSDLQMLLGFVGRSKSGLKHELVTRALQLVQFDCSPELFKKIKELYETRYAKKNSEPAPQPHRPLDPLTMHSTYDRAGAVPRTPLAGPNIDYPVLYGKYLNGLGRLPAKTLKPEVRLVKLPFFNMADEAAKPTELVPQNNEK

In assay [2] the target is T2, GST-PIASγmut1 (human) (UniProt Q8N2W9).
T2 sequence: T1 sequence with L20A, L23A, L24A, A142L, A145L, A146L

The target of assay [3] is T3, GST-PIASγ_(1–158) (human) (UniProt Q8N2W9).
T3 sequence: T1 sequence with A142L, A145L, A146L

For “Myc-Nurr1_(363–598) (from UniProt Q07917 363-598) (domain or fragment)”, the binding result is recorded as “binds” in assay [1], “no binding (tested: 1.5 µg GST fusion on beads)” in assay [2] and “binds” in assay [3].

Values taken from publication PMC3554661.
